Laboratory results from paper PMC10753549 (ACS Omega, 2023).
Structures can show the parent of a compound that is named as a salt.

Tested on: brine shrimp (Artemia salina)
Experiment: Brine shrimp lethality bioassay
Details: brine shrimp nauplii, 24 h, probit analysis of 6-point dose (16–500 μg/mL)

CN1[C@@H]2CC[C@H]1C[C@@H](OC(=O)C(CO)c1ccccc1)C2 (stereo partly shown) [Atropine SO4, Atropine sulfate monohydrate]
LD50 (median lethal dose): 737.8 µg/mL
